Source: the supplement of paper PMC12823440, “Inhibitors supercharge kinase turnover through native proteolytic circuits” (Nature, 2025)
Counter-ions that a name gives are not always drawn. This is one part of the list. Hit calls seldom repeat between salt and free forms of one compound.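 Kinases were expressed as nanoluciferase fusions in K562 cells and luminescence was read every 4 h between 2 and 18 h as percent of control, DMSO set to 100% and a positive control to 0%. A time point counts as decreased when the signal drops significantly (2 sigma). The hit call is the authors' own, does not follow from the count of time points alone, and its rule is not shown.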

By UniProt entry, the sequences of proteins in these tests, tags left out. Where a name states a change or a piece, a line headed by the entry shows the natural chain unless it says otherwise.
UniProt P07947, whole entry, looked up: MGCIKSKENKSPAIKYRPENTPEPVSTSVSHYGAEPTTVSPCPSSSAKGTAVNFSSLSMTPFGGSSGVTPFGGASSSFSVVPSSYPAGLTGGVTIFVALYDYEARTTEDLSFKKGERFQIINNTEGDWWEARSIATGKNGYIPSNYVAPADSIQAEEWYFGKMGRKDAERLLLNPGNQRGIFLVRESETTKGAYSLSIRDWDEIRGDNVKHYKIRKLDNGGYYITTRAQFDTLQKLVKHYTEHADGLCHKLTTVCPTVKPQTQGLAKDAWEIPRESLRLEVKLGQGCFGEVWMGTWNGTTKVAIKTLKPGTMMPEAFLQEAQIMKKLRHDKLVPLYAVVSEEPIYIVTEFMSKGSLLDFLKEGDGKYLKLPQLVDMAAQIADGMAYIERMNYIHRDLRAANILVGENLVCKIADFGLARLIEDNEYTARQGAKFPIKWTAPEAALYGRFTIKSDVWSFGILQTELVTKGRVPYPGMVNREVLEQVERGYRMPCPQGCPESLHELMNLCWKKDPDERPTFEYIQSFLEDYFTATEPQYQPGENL
UniProt P43403: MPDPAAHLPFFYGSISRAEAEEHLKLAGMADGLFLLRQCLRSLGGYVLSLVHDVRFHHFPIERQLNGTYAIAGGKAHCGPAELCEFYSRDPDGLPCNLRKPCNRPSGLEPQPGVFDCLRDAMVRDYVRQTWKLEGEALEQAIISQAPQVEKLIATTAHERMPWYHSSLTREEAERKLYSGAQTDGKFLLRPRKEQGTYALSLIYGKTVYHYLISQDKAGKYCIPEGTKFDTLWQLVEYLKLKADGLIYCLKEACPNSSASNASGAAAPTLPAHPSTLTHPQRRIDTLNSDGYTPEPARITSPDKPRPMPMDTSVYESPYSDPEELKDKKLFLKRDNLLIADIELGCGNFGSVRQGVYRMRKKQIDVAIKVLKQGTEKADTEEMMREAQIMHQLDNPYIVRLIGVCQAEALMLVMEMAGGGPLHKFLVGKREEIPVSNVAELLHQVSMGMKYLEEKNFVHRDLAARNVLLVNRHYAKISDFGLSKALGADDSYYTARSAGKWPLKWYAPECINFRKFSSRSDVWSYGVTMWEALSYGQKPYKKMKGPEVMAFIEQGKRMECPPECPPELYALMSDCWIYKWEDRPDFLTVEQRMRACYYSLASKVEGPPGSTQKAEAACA
UniProt P11802: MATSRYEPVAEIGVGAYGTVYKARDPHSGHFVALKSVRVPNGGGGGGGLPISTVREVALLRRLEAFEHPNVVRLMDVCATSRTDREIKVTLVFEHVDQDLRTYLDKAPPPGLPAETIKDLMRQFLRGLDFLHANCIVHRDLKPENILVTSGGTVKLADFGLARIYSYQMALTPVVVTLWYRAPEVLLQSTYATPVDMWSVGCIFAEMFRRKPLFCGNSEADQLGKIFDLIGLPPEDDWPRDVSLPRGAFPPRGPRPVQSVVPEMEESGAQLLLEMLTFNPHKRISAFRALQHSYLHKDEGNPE
UniProt P50613: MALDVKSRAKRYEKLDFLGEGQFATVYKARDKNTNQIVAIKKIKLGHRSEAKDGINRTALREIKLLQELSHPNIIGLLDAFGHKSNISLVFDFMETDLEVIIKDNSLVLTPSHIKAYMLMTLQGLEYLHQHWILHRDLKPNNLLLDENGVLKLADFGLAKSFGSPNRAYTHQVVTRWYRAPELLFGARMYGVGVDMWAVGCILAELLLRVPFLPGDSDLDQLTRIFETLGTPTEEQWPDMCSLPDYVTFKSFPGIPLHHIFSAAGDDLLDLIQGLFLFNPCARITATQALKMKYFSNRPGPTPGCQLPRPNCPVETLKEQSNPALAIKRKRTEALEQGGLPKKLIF
UniProt P50750, whole entry: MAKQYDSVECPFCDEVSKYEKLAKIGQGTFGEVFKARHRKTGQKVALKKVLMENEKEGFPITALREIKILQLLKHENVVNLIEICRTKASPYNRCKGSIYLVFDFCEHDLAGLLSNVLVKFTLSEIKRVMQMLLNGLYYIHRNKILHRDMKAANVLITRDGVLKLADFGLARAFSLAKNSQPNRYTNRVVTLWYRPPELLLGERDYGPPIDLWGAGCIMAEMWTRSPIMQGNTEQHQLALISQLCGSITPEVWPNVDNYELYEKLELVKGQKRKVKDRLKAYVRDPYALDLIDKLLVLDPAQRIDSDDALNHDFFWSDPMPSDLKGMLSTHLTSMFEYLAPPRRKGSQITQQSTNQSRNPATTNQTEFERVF

Legend:
Details in all cases: K562; 2-18 h
YES1 = YES1 (UniProt P07947); assay: number of time points (of 5) at which kinase-Nluc abundance scored as decreased, DMSO-normalised (count); higher = more persistent destabilization
ZAK = ZAK (UniProt Q9NYL2); assay: as above
ZAP70 = ZAP70 (UniProt P43403); assay: as above
CDK4 = CDK4 (UniProt P11802); assay: number of time points (of 4; 2 h point missing) at which kinase-Nluc abundance scored as decreased, DMSO-normalised (count); higher = more persistent destabilization
CDK7 = CDK7 (UniProt P50613); assay: as above
CDK9 = CDK9 (UniProt P50750); assay: as above

Measured: number of time points

CC(=O)N1CCC(c2cc(-c3ccc(NC(=O)c4cccn(-c5ccc(F)cc5)c4=O)cc3F)c3c(N)ncnn23)CC1 (0.5 µM)
1: CDK7
0: all other assays above

CC(C)(C)n1nc(Cc2ccccc2O)c2c(N)ncnc21 (10 µM)
1: CDK7
0: all other assays above

C[C@@H]1COCCN1c1nc(-c2cnc(N)cc2C(F)F)nc(N2[C@H](C)COC[C@@H]2C)n1 (2.5 µM)
3: CDK7
0: all other assays above

O=Nc1c2[nH]c3ccccc3nc-2c2ccccc12 [IQ-1S (free acid)] (2.5 µM)
0: all assays above

COc1ccc2cc3[n+](cc2c1OC)CCc1cc(O)c(O)cc1-3 [Demethyleneberberine] (10 µM)
0: all assays above

C[C@H](Nc1ncnc2nc[nH]c12)c1cc2cccc(Cl)c2c(=O)n1-c1ccccc1 [Duvelisib] (10 µM)
0: all assays above

Cc1cnc(-c2ccc(-c3ccc(NC(=O)Nc4cccc(C(F)(F)F)c4)cc3F)c3c2C(=O)NC3)[nH]1 (10 µM)
2: CDK9
1: CDK7
0: all other assays above

CCc1cccc(CC)c1NC(=O)N1Cc2[nH]nc(NC(=O)c3ccc(N4CCN(C)CC4)cc3)c2C1 (2.5 µM)
2: CDK7
1: YES1 | CDK9
0: all other assays above

C=CC(=O)N1C[C@H](COc2nc(Nc3cnn(C)c3)nc3[nH]cc(Cl)c23)[C@@H](OC)C1 (2.5 µM)
0: all assays above

CN(C)c1nc2c(Br)c(Br)c(Br)c(Br)c2[nH]1 (10 µM)
0: all assays above

Cc1nn(C)c2c1C(c1ccc(C(F)(F)F)cc1)C(C#N)=C(N)O2 (configuration not stated) (10 µM)
0: all assays above

N[C@@H](CCC(=O)O)C(=O)N[C@@H](Cc1c[nH]c2ccccc12)C(=O)O [Oglufanide] (10 µM)
0: all assays above

COc1cc2ncnc(Nc3ccc(F)c(Cl)c3)c2cc1NC(=O)/C=C/CN1CCCCC1 [Dacomitinib] (10 µM)
1: CDK7
0: all other assays above

C[C@@H]1CN(c2cc(-c3n[nH]c4ccc(OC5(C)CC5)cc34)ncn2)C[C@H](C)O1 (10 µM)
0: all assays above

Cn1cc(C2=C(c3cn(CCCSC(=N)N)c4ccccc34)C(=O)NC2=O)c2ccccc21 [Ro 31-8220 (mesylate)] (2.5 µM)
1: CDK7
4: CDK9
0: all other assays above

CN1CC[C@@H](c2c(O)cc(O)c3c(=O)cc(-c4ccc(C(F)(F)F)cc4Cl)oc23)[C@@H]1CO [Voruciclib (hydrochloride)] (10 µM)
0: all assays above

Cn1ncc2cc(-c3cnc(N)c(Cl)c3N3CCC4(CCNC4=O)CC3)ccc21 (10 µM)
1: CDK7
0: all other assays above

NC(=S)n1[nH]c(-c2ccc([N+](=O)[O-])cc2)c(N=Nc2cccc(Cl)c2)c1=O (2.5 µM)
0: all assays above

Oc1ccc(/C=C/c2cc(O)cc(O)c2)cc1 [Resveratrol] (10 µM)
0: all assays above

COc1ccc(S(=O)(=O)NCc2ccc(C(=O)NCCc3ccc(Cl)cn3)cc2)cc1 (10 µM)
0: all assays above

O=c1[nH]c(C2CCCN2)nc2c1oc1ccc(Cl)cc12 (configuration not stated) [XL413 (hydrochloride)] (10 µM)
0: all assays above

c1ccc(-c2nc(=NCCN3CCOCC3)sn2-c2ccccc2)cc1 [VP3.15 (dihydrobromide)] (10 µM)
0: all assays above

Cc1ccc(NC(=O)c2ccc(CN(CCN(C)C)C(=O)c3cccnc3)cc2)cc1Nc1nccc(-c2cccnc2)n1 [PDGFRα kinase inhibitor 1] (10 µM)
0: all assays above

Cc1cnc(NC2CCOCC2)nc1-n1cnc(C(=O)N[C@H](CN)c2cc(F)cc(Cl)c2)c1 (10 µM)
0: all assays above

C[C@@H]1O[C@@H](O[C@@H]2[C@@H](O)[C@H](OCCc3ccc(O)c(O)c3)O[C@H](CO)[C@H]2OC(=O)/C=C/c2ccc(O)c(O)c2)[C@H](O)[C@H](O)[C@H]1O [Verbascoside] (10 µM)
0: all assays above

Part of the list above in order of length of the SMILES, largest number first.
CCc1cccc(CC)c1NC(=O)N1Cc2[nH]nc(NC(=O)c3ccc(N4CCN(C)CC4)cc3)c2C1 (2.5 µM)
2: CDK7
1: YES1 | CDK9
0: all other assays above

COc1ccc(S(=O)(=O)NCc2ccc(C(=O)NCCc3ccc(Cl)cn3)cc2)cc1 (10 µM)
0: all assays above

c1ccc(-c2nc(=NCCN3CCOCC3)sn2-c2ccccc2)cc1 [VP3.15 (dihydrobromide)] (10 µM)
0: all assays above

More entries.

CC(C)c1cc(/C=C(\C#N)C(=O)NCCCc2ccccc2)cc(C(C)C)c1O (10 µM)
1: CDK9
0: all other assays above

CCc1ccc(OCC(=O)Nc2ccc(F)c([N+](=O)[O-])c2)cc1 (10 µM)
0: all assays above

C[C@H](Nc1ncnc2[nH]cnc12)c1cc2ccc(F)cc2nc1-c1ccccn1 (10 µM)
0: all assays above

O=C(Nc1nc(=O)n(Cc2ccc(Cl)cc2)s1)c1ccc(Cl)cc1 (10 µM)
0: all assays above

Nc1n[nH]c2nc(-c3ccc(NS(=O)(=O)c4cc(Cl)ccc4F)cc3)cnc12 (10 µM)
0: all assays above

CN(c1ccc(NC(=O)Nc2ccc(OC(F)(F)F)cc2)cc1)c1ccnc(Nc2cccc(S(N)(=O)=O)c2)n1 (2.5 µM)
3: CDK7
1: YES1 | ZAK
0: all other assays above

Cn1cnc([N+](=O)[O-])c1C[N+](C)(C)C/C=C/C(=O)Nc1cc2c(Nc3ccc(Cl)c(Br)c3)ncnc2cn1 [Tarloxotinib (bromide)] (10 µM)
0: all assays above

CNC(=O)c1ccccc1Nc1nc(Nc2ccc3c(c2OC)CCC[C@H](N2CCN(CCO)CC2)C3)ncc1Cl (10 µM)
1: YES1 | CDK7
0: all other assays above

CC(C)(O)[C@H]1CC[C@H](Nc2ccc3ncc(-c4cccc(C(F)(F)F)c4)n3n2)CC1 (10 µM)
0: all assays above

NC1=NCCN1CC(=O)O [Cyclocreatine] (10 µM)
0: all assays above

CNc1nc(Nc2cn(C(C)(C)C#N)nc2C)ncc1C(F)(F)F (10 µM)
0: all assays above

O=c1cc(N2CCOCC2)nc2c3ccccc3ccn12 [Compound 401] (10 µM)
0: all assays above

O=C(O)c1cc(=O)c2c(OCC(O)COc3cccc4oc(C(=O)O)cc(=O)c34)cccc2o1 [Cromolyn (sodium)] (10 µM)
0: all assays above

C=C[C@@](C)(/C=C/c1ccc(O)cc1)CCC=C(C)C [Bakuchiol] (10 µM)
0: all assays above

O=C(Nc1cccc(Nc2ncc(Br)c(NCCc3cnc[nH]3)n2)c1)N1CCCC1 (10 µM)
0: all assays above

Cc1cc(-c2ccnc(Nc3cnn(C)c3)n2)ccc1CNC(=O)N1CC(OC(C)C)C1 (10 µM)
0: all assays above

COc1cc2ncnc(-n3nc(-c4ccccn4)nc3N)c2cc1OC (10 µM)
0: all assays above

c1cc(NC2CCNCC2)nc(-c2cnc3ccccn23)c1 [IRAK inhibitor 1] (10 µM)
0: all assays above

CNC(=O)c1cc2c(Oc3ccc(NC(=S)NC(=O)Cc4ccccc4)cc3F)ccnc2cc1OC [TAS-115 mesylate] (10 µM)
2: YES1
0: all other assays above

COc1cc2ncnc(Nc3ccccc3)c2cc1OC (10 µM)
0: all assays above

O=C1NC(=O)/C(=C/c2ccc3nccc(-c4ccncc4)c3c2)S1 (10 µM)
0: all assays above

N#Cc1ccnc(Nc2cc(C3CCN(C4COC4)CC3)cc(N3CCC(F)(F)C3)n2)c1 (2.5 µM)
0: all assays above
